# Laboratory results published in PubChem BioAssay (NCATS).
# Protein sequences, listed by entry. Tags and fused reporters are not part of them. Lines headed by an entry give the natural chain unless they say otherwise; changes in a name come on top.
# UniProt P11712, whole entry: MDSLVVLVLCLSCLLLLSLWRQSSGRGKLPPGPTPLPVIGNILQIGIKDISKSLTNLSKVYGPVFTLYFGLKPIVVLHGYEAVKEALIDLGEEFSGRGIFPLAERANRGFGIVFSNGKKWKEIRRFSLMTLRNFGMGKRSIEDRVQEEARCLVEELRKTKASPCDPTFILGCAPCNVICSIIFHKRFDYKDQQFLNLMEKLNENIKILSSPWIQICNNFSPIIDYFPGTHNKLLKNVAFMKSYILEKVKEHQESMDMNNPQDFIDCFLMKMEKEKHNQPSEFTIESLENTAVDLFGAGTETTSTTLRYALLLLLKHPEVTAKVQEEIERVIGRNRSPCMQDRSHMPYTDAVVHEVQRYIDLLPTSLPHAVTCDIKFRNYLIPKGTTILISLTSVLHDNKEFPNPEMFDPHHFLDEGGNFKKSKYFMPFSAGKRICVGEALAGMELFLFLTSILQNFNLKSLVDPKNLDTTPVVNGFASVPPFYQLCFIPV
# UniProt O95398, whole entry: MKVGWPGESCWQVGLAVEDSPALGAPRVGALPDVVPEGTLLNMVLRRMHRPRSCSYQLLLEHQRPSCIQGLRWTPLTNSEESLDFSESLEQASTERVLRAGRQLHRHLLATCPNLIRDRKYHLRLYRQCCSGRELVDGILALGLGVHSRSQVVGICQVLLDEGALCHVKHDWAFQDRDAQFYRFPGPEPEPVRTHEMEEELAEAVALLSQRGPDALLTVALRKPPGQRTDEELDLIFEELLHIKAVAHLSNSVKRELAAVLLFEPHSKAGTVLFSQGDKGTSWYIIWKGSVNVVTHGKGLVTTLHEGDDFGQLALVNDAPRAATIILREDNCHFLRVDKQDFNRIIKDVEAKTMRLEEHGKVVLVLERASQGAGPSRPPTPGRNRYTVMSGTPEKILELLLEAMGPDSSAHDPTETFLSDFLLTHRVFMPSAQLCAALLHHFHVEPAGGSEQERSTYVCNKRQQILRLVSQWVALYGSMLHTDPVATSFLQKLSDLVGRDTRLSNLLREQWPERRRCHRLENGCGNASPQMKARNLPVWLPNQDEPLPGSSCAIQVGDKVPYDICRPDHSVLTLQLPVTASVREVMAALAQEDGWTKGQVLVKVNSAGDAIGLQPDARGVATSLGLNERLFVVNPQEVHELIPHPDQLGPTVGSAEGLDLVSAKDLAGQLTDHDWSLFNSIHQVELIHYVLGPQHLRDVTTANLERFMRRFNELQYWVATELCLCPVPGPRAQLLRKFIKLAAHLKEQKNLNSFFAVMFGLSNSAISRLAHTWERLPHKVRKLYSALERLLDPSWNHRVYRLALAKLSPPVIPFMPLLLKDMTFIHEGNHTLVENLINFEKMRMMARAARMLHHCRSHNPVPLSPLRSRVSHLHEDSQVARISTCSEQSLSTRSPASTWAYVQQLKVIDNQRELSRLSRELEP
# Listed are the inconclusive results; actives and inactives stand elsewhere. Unless noted, the call rests on the fitted dose curve; in most records, active means well fitted curve in the direction sought with a large enough effect; inconclusive means small, poorly fitted or top-dose-only effect, or another doubt; inactive means no such curve, though single readings can be large; an effect the other way counts as inactive or inconclusive.
# Experiments:
# [1] = qHTS of pediatric cancer cell lines to identify multiple opportunities for drug repurposing: Primary screen for SK-N-MC cells (AID 1347093); settings: SK-N-MC viability, CellTiter-Glo luminescence, 48 h
# [2] = Primary qHTS for inhibitors of nuclear receptor binding SET domain protein 2 (NSD2) in an isogenic RCH-ACV NSD2 p.E1099K mutant (9B) (AID 1645876); settings: RCH-ACV NSD2 E1099K (9B) viability, CellTiter-Glo, 72 h; further: nearly all actives have a fitted effect of over 70% in size
# [3] = Primary qHTS for inhibitors of nuclear receptor binding SET domain protein 2 (NSD2) in an RCH-ACV wild type WT cells (2C) (AID 1645877); settings: RCH-ACV (leukaemia line) NSD2 WT (2C) viability, CellTiter-Glo, 72 h; further: nearly all actives have a fitted effect of over 70% in size
# Source text: Assay Provider: Jonathan D. Licht, MD
# University of Florida College of Medicine, Gainesville, FL
# Mutations in epigenetic regulators are common in relapsed pediatric acute lymphoblastic leukemia (ALL). Here, we uncovered the mechanism underlying the relapse of ALL driven by an activating mutation of the NSD2 histone methyltransferase (p.E1099K). […] Correction of this mutation restored glucocorticoid sensitivity. The transcriptional response to glucocorticoids was blocked in NSD2 mutant cells due to depressed glucocorticoid receptor (GR) levels and the failure of glucocorticoids to autoactivate GR expression. […] Pre-treatment of NSD2 p.E1099K cell lines and PDX samples with PRC2 inhibitors reversed glucocorticoid resistance in vitro and in vivo.
# High-throughput drug screening of isogenic RCH-ACV cell lines was performed at the National Center for Advancing Translational Science (NCATS), National Institutes of Health as previously described (1). Briefly, isogenic RCH-ACV NSD2 p.E1099K mutant (9B) and WT cells (2C) were plated at 500 cells/well in a 1536-well plate with a 72-hour incubation with compounds prior to addition of CellTiter-Glo to assess cell viability. NCATS libraries screened include: NPC, MIPE 5.0, Kinase and NPACT. […]
# [4] = qHTS of pediatric cancer cell lines to identify multiple opportunities for drug repurposing: Confirmatory screen for SJ-GBM2 cells (AID 1347116); settings: SJ-GBM2 glioblastoma cells, viability; further: nearly all actives have a fitted effect of over 60% in size
# Outline: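 Viability measured as metabolically active cells via CellTiter-Glo luminescence following 48 hours of compound exposure, 11-point dilutions in confirmatory testing. 500-1,000 cells/well plated 5 hours before dosing; controls were DMSO and 2.3 µM bortezomib.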
# [5] = Confirmatory qHTS for VERO E6 Cytotoxicity Assay: Counterscreen for SARS-CoV-2 CPE Assay (AID 1508605; calls by dose curve; further: nearly all actives have a fitted effect of over 60% in size); settings: cell viability luminescence
# [6] = target: Cytochrome P450 2C9 (Homo sapiens) (UniProt P11712); test: Cytochrome P450 family 2 subfamily C member 9 (CYP2C9) small molecule antagonists: luciferase qHTS assay (AID 1645842; active means well fitted curve in the direction sought with a large enough effect in the repeat runs; inconclusive means weak or mixed curves; inactive means no such curve, though single readings can be large; an effect the other way counts as inactive or inconclusive; further: nearly all actives have a fitted effect of over 55% in size); settings: P450-Glo CYP2C9 enzyme assay, luciferin luminescence
# Outline: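 P450-Glo CYP2C9 system: proluciferin substrate with enzyme in mix containing 0.4% BSA, 10 min at room temperature, then NADPH regeneration solution added and incubated 1 h at 37C. Detection reagent stopped reaction; luminescence read after 20 min as RLU.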
# HaCat = test: Cytotoxic Profiling of Annotated Libraries Using Quantitative High-Throughput Screening (AID 1296008); settings: Five cell lines viability, CellTiter-Glo ATP luminescence, 48-72 h; further: nearly all actives have a fitted effect of over 60% in size
# Outline: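 Compounds were pin-transferred onto cells and incubated 48 or 72 hr at 37 degree Celsius, 95% humidity. CellTiter-Glo was added, plates sat 10 min at room temperature, then ATP-coupled luminescence was imaged as the viability read-out.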
# [7] = target: Rap guanine nucleotide exchange factor 3 (Homo sapiens) (UniProt O95398); test: Confirmatory qHTS for antagonist of cAMP-regulated guanine nucleotide exchange factor 3 (EPAC1) (AID 1645880); settings: EPAC1 Rap1B-BODIPY-GDP exchange, fluorescence; further: nearly all actives have a fitted effect of over 55% in size
# Outline: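 Released BODIPY-GDP fluoresces less than Rap1-bound BODIPY-GDP; the signal is followed at 480/540 nm at 5-min intervals over 30 min, after 5 min at room temperature. Reactions contain 100 nM EPAC1, 250 nM RAP1B-BODIPY-GDP and 50 uM GDP; results are normalized to ATA and DMSO.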
# [8] = target: Rap guanine nucleotide exchange factor 3 (Homo sapiens) (UniProt O95398); test: Counterscreen qHTS for agonist of cAMP-regulated guanine nucleotide exchange factor 3 (EPAC1) (AID 1645889); settings: EPAC1 Rap1B-BODIPY-GDP exchange, fluorescence; further: nearly all actives have a fitted effect of over 40% in size
# Outline: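 Measured: fluorescence of BODIPY-GDP bound to Rap1B, which falls as exchange proceeds. Conditions include 50 uM competing GDP, 5 and 30 min reads, and a later cAMP challenge for antagonist detection.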
# Potency means the concentration at half of the fitted maximal effect.
compound,measurement,setting,value
CCC(=O)N(c1ccccc1)C1CCNCC1,Potency,[1],inconclusive: 0.0668 µM
same,Potency,[2],inconclusive: 16.8 µM
same,Potency,[3],inconclusive: 33.5 µM
CCOC(=O)N1CCC(=O)CC1,Potency,[4],inconclusive: 0.131 µM
CC(=O)N1CCc2ccc(N(C(=O)/C=C/c3cccc(C#N)c3)C3CCN(CCC4CCCC4)CC3)cc21,Potency,[5],inconclusive: 11.2 µM
same,Potency,[6],inconclusive: 26.8 µM
same,Potency,HaCat,inconclusive: 23.1 µM
O=c1[nH]c2ccccc2n1C1CCN(C(c2ccccc2OC(F)(F)F)c2nnnn2C2CCCC2)CC1 (stereo not given),Potency,[7],inconclusive: 37.9 µM
same,Potency,[8],inconclusive: 3.16 µM
CCC(c1nnnn1C(C)(C)C)N1CCC(n2c(=O)[nH]c3ccccc32)CC1 (stereo not given),Potency,[8],inconclusive: 0.0631 µM
